Patent US20250003994A1, “DEVICE AND METHOD FOR TREATING TISSUE OXYGEN DEFICIENT CONDITIONS” (IP SCIENCE LIMITED, priority 2021, published 2025)
For at least one compound, name, drawing or mass did not settle the structure.

Tests used:
[1] = system: clinically healthy volunteers; assay: Oxygen carrying capacity of plasma lipoproteins (OCCL) by catalymetry assay, one-month intake, Example 2.4; format: in vivo, human; settings: 4 weeks daily intake
Procedure: 6 healthy volunteers (HV, 42-61 years old) and 4 CAD patients, eligible for the treadmill test (age 45-59 years old) were recruited for this study. Apart from assessing changes their electrocardiogram (ECG), pulse and blood pressure, samples and level of oxygen carrying capacity of plasma lipoproteins, OCCL, from venous blood was analyzed prior to the test and within 3-4 minutes afterward. The measurement was conducted using a catalymetry assay. In short, 10 μl of citrate plasma was added to 0.98 ml cuvette of 0.05 M phosphate buffer with 0.1 mM sodium ethylenediamine tetraacetic acid (EDTA-Na), containing 10^−6 M phenazine methosulphate and 10^−4 M nitro blue tetrazolium chloride (NBT). The reaction was initiated by adding 10 μl of 10^−4 M NADH.
The difference in absorption at λ=560 nm between starting point and after 60 seconds was measured by spectroscopy. […] The difference in the reduction of NBT with the analyzed sample and the control was used to calculate the amount of O2 in added plasma lipoproteins.
In this section the effects of regular intake of validated bioactive nutraceuticals on blood OCCL and tissue oxygen saturation (StO2) was evaluated.
For this study […] clinically healthy volunteers were recruited (age 35-57 years old), 30 male and 34 female). […] The blood and StO2 were analyzed prior the trial and after (4 weeks). OCCL was analyzed as described above.

[2] = system: clinically healthy volunteers; assay: Tissue oxygen saturation (StO2) by near-infrared spectroscopy with stagnant ischemia, Example 2.4; format: in vivo, human; settings: 4 weeks daily intake
Procedure: For this study […] clinically healthy volunteers were recruited (age 35-57 years old), 30 male and 34 female). The subjects had not taken any medication or dietary supplements prior to the experiment. The volunteers were randomized and divided into 7 groups of 8 persons each. The participants were given a one-month supply of a particular nutraceutical or pharmaceutical. […] The daily dose for each product was taken in 1 capsule with the main meal of the day. The blood and StO2 were analyzed prior the trial and after (4 weeks). OCCL was analyzed as described above.
Thenar eminence and forearm muscles of the patients were used as a tissue target for the assessment of StO2, or combined level of oxygenated hemoglobin and myoglobin. StO2 was assessed by continuous wavelength near-infrared spectroscopy, NIRS, with wide-gap second-derivative (In Spectra, Hutchinson Technology, MN, USA), as known in the art. The measurements were taken at different time points. The recording was initiated after 15 min of rest in a supine position, before occlusion of the brachial artery. […]
The area under the hyperemic curve, AUC, of the recorded signal for the settling time in the post occlusion period was then calculated in AUC mm, or % O2/min. All body and vascular parameters were recorded in the morning between 8 and 10 a.m.

## CCC(C)(C)C(=O)O[C@H]1C[C@@H](C)C=C2C=C[C@H](C)[C@H](CC[C@@H]3C[C@@H](O)CC(=O)O3)[C@H]21 [Simvastatin, reference compound]
[1]
  Effect of regular intake on OCCL (in words): did not affect
[2]
  Effect of regular intake on StO2 / peripheral tissue oxygenation (in words): did not affect
